Laboratory results from the supplement of paper PMC5355238.
Counter-ions that a name gives are not always drawn. Some of the results follow. Most values lie at the level of the controls, where differences are scatter.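 Reh is a human leukemia cell line; the read-out is the median γH2AX antibody signal in S-phase cells by flow cytometry, with the score counting standard deviations from the median difference of each paired set of plates. Scores above 2.5 were called candidate hits, while scores below -2 mark compounds that lowered the MK1775-induced damage.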

test system: Reh; experiment: Z' of S-phase gammaH2AX difference (drug + MK1775 minus drug alone) (Z-score); higher = stronger synergistic S-phase DNA damage with MK1775; details: MK1775 concentration 400 nM; first compound 10 µM; 4 h

Row | SMILES | Z' of S-phase gammaH2AX difference (Z-score)
1 | O=C1NC(=O)C(c2ccccc2[N+](=O)[O-])=C1Nc1ccc(O)c(Cl)c1 + C=CCn1c(=O)c2cnc(Nc3ccc(N4CCN(C)CC4)cc3)nc2n1-c1cccc(C(C)(C)O)n1 [MK1775] | inactive: -0.984
2 | Oc1ccc(C2CNCCc3c2cc(O)c(O)c3Cl)cc1 (stereo unspecified) [Fenoldopam bromide] + C=CCn1c(=O)c2cnc(Nc3ccc(N4CCN(C)CC4)cc3)nc2n1-c1cccc(C(C)(C)O)n1 [MK1775] | inactive: -0.508
3 | COc1ccc(CCN(C)CCCOc2ccc(S(=O)(=O)c3c(C(C)C)n(C)c4ccccc34)cc2)cc1OC + C=CCn1c(=O)c2cnc(Nc3ccc(N4CCN(C)CC4)cc3)nc2n1-c1cccc(C(C)(C)O)n1 [MK1775] | inactive: -0.472
4 | Cc1ccc(-c2csc3ncnc(SCCC(=O)O)c23)cc1 + C=CCn1c(=O)c2cnc(Nc3ccc(N4CCN(C)CC4)cc3)nc2n1-c1cccc(C(C)(C)O)n1 [MK1775] | inactive: 0.283
5 | NCCc1c[nH]cn1 [Histamine dihydrochloride] + C=CCn1c(=O)c2cnc(Nc3ccc(N4CCN(C)CC4)cc3)nc2n1-c1cccc(C(C)(C)O)n1 [MK1775] | inactive: -0.93
6 | CC(=O)Nc1cccc(-n2c(=O)n(C3CC3)c(=O)c3c(Nc4ccc(I)cc4F)n(C)c(=O)c(C)c32)c1 + C=CCn1c(=O)c2cnc(Nc3ccc(N4CCN(C)CC4)cc3)nc2n1-c1cccc(C(C)(C)O)n1 [MK1775] | inactive: -0.376
7 | CC[N+](C)(C)c1cccc(O)c1 [Edrophonium chloride] + C=CCn1c(=O)c2cnc(Nc3ccc(N4CCN(C)CC4)cc3)nc2n1-c1cccc(C(C)(C)O)n1 [MK1775] | inactive: 0.751
8 | OCCN1CCN(CC/C=C2/c3ccccc3Sc3ccc(C(F)(F)F)cc32)CC1 [cis-(Z)-Flupenthixol dihydrochloride] + C=CCn1c(=O)c2cnc(Nc3ccc(N4CCN(C)CC4)cc3)nc2n1-c1cccc(C(C)(C)O)n1 [MK1775] | inactive: -0.143
9 | O=C(/C=C/C#Cc1cccc(NS(=O)(=O)c2ccccc2)c1)NO [Oxamflatin] + C=CCn1c(=O)c2cnc(Nc3ccc(N4CCN(C)CC4)cc3)nc2n1-c1cccc(C(C)(C)O)n1 [MK1775] | inactive: -0.178
10 | Cc1cn[nH]c1 [4-Methylpyrazole hydrochloride] + C=CCn1c(=O)c2cnc(Nc3ccc(N4CCN(C)CC4)cc3)nc2n1-c1cccc(C(C)(C)O)n1 [MK1775] | inactive: 1.01
11 | COC(=O)Nc1nc2cc(C(=O)c3cccs3)ccc2[nH]1 [Nocodazole] + C=CCn1c(=O)c2cnc(Nc3ccc(N4CCN(C)CC4)cc3)nc2n1-c1cccc(C(C)(C)O)n1 [MK1775] | inactive: 0.45
